Results are given in words; binding and its absence hold for the method and conditions named. Some results given as binding are weak or reduced against the parent protein; the word gives no strength.
Target: MSLN-His (R&D System) (UniProt Q13421)
Assay: flow cytometry; transduced primary human T cells stained with MSLN-His, then anti-His APC

The chains behind the UniProt entries cited, without tags or fusion partners. Where a name states a change or a piece, a line headed by the entry shows the natural chain unless it says otherwise. A line that says so, or that is headed by a name, gives the form on record, which may keep a tag or linker.
MSLN-His (R&D System) (Q13421, form named): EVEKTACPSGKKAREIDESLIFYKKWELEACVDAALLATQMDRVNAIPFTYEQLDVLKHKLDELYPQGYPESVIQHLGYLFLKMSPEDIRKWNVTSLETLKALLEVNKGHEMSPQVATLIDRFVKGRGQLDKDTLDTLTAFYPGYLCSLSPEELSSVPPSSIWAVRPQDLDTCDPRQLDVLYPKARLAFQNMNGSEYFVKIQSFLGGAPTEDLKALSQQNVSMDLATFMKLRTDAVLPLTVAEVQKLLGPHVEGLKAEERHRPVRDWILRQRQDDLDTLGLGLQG

binding: binds
B1: CAR D0233 MSLN M1-4S ROR1 scFv9 IgG4 CD8 BBz (other)
chain: EVQLVQSGGGLVQPGGSLRLSCAASGFTFDDYAMHWVRQAPGKGLEWVSGISWNSGSIGYADSVKGRFTISRDNAKNSLYLQMNSLRAEDTALYYCAKDLSSVAGPFNYWGQGTLVTVSSGGGGSGGGGSGGGGSSSELTQDPAVSVALGQTVRITCQGDSLRSYYASWYQQKPGQAPVLVIYGKNNRPSGIPDRFSGSSSGNTASLTITGAQAEDEADYYCNSRDSSGNHLVFGGGTQLTVLGGGGGSGGGGSGGGGSGGGGSGGGGSQAAQVQLQQSGAEVKKPGSSVKVSCKASGGTFSSYAISWVRQAPGQGLEWMGWINPNSGGTNYAQRFQGRVTMTRDTSISTAYMELSRLRSDDTAVYYCASYNDAFDIWGQGTLVTVSSGGGGSGGGGSGGGGSNFMLTQPHSVSESPGKTVTISCTRSSGSIASNYVQWYQQRPGSAPTIVIYEDDQRPSGVPDRFSGSIDTSSNSASLTISGLQSEDEADYYCQSYEPGNGVFGGGTKVTVLAAAESKYGPPCPPCPIYIWAPLAGTCGVLLLSLVITLYCKRGRKKLLYIFKQPFMRPVQTTQEEDGCSCRFPEEEEGGCELRVKFSRSADAPAYQQGQNQLYNELNLGRREEYDVLDKRRGRDPEMGGKPRRKNPQEGLYNELQKDKMAEAYSEIGMKGERRRGKGHDGLYQGLSTATKDTYDALHMQALPPR
notes: Tandem CAR on transduced primary human T cells; also called MSLN-ROR1 scFv9-IgG4 hinge-CD8TM-41BB-CD3ζ; tandem CAR D0233

Source: US20240091360A1 (LENTIGEN TECHNOLOGY, published 2024)
